No constants are given. Whether binding was seen depends on the method and setting. Some results given as binding are weak or reduced against the parent protein; the word gives no strength.
Legend:
[1] = target: wild type mature hK2 (prostate-specific glandular kallikrein protein) (human) (UniProt P20151); assay: hK2 spiked into human serum, Western blot
[2] = target: wild type mature hK2 (prostate-specific glandular kallikrein protein) (human) (UniProt P20151); assay: protease spiked into human serum, Western blot
[3] = target: prostate-specific antigen protein, hK3 (PSA) (human) (UniProt P07288); assay: protease spiked into human serum, Western blot
[4] = target: prostate-specific antigen protein, hK3 (PSA) (human) (UniProt P07288); assay: covalent complex formation, SDS-PAGE and Western blot
[5] = target: wild type mature hK2 (prostate-specific glandular kallikrein protein) (human) (UniProt P20151); assay: covalent complex formation, SDS-PAGE and Western blot with HK1G586.1

Sequences of proteins named here, by UniProt entry; tags and fusion partners are left off. A change or cut given only in a name is not applied to a line headed by its entry.
UniProt P20151: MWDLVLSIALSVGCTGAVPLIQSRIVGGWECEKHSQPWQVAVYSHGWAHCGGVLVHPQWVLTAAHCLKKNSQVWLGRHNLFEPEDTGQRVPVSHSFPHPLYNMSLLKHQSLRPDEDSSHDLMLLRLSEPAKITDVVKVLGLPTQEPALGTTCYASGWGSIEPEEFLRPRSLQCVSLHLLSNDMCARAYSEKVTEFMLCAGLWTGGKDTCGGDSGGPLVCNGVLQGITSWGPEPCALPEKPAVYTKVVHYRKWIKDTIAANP
UniProt P07288: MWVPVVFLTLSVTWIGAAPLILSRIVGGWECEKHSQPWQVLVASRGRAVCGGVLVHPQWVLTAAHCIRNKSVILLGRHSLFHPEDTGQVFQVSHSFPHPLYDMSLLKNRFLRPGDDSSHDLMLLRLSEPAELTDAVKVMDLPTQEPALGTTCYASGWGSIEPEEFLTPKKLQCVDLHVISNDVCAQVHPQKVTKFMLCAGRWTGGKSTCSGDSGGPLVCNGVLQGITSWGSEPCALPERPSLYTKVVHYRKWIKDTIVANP

Measured: binding

B1: α2 macroglobulin (MG) (protein, human, UniProt P01023 24-1474, looked up)
chain: SVSGKPQYMVLVPSLLHTETTEKGCVLLSYLNETVTVSASLESVRGNRSLFTDLEAENDVLHCVAFAVPKSSSNEEVMFLTVQVKGPTQEFKKRTTVMVKNEDSLVFVQTDKSIYKPGQTVKFRVVSMDENFHPLNELIPLVYIQDPKGNRIAQWQSFQLEGGLKQFSFPLSSEPFQGSYKVVVQKKSGGRTEHPFTVEEFVLPKFEVQVTVPKIITILEEEMNVSVCGLYTYGKPVPGHVTVSICRKYSDASDCHGEDSQAFCEKFSGQLNSHGCFYQQVKTKVFQLKRKEYEMKLHTEAQIQEEGTVVELTGRQSSEITRTITKLSFVKVDSHFRQGIPFFGQVRLVDGKGVPIPNKVIFIRGNEANYYSNATTDEHGLVQFSINTTNVMGTSLTVRVNYKDRSPCYGYQWVSEEHEEAHHTAYLVFSPSKSFVHLEPMSHELPCGHTQTVQAHYILNGGTLLGLKKLSFYYLIMAKGGIVRTGTHGLLVKQEDMKGHFSISIPVKSDIAPVARLLIYAVLPTGDVIGDSAKYDVENCLANKVDLSFSPSQSLPASHAHLRVTAAPQSVCALRAVDQSVLLMKPDAELSASSVYNLLPEKDLTGFPGPLNDQDNEDCINRHNVYINGITYTPVSSTNEKDMYSFLEDMGLKAFTNSKIRKPKMCPQLQQYEMHGPEGLRVGFYESDVMGRGHARLVHVEEPHTETVRKYFPETWIWDLVVVNSAGVAEVGVTVPDTITEWKAGAFCLSEDAGLGISSTASLRAFQPFFVELTMPYSVIRGEAFTLKATVLNYLPKCIRVSVQLEASPAFLAVPVEKEQAPHCICANGRQTVSWAVTPKSLGNVNFTVSAEALESQELCGTEVPSVPEHGRKDTVIKPLLVEPEGLEKETTFNSLLCPSGGEVSEELSLKLPPNVVEESARASVSVLGDILGSAMQNTQNLLQMPYGCGEQNMVLFAPNIYVLDYLNETQQLTPEIKSKAIGYLNTGYQRQLNYKHYDGSYSTFGERYGRNQGNTWLTAFVLKTFAQARAYIFIDEAHITQALIWLSQRQKDNGCFRSSGSLLNNAIKGGVEDEVTLSAYITIALLEIPLTVTHPVVRNALFCLESAWKTAQEGDHGSHVYTKALLAYAFALAGNQDKRKEVLKSLNEEAVKKDNSVHWERPQKPKAPVGHFYEPQAPSAEVEMTSYVLLAYLTAQPAPTSEDLTSATNIVKWITKQQNAQGGFSSTQDTVVALHALSKYGAATFTRTGKAAQVTIQSSGTFSSKFQVDNNNRLLLQQVSLPELPGEYSMKVTGEGCVYLQTSLKYNILPEKEEFPFALGVQTLPQTCDEPKAHTSFQISLSVSYTGSRSASNMAIVDVKMVSGFIPLKPTVKMLERSNHVSRTEVSSNHVLIYLDKVSNQTLSLFFTVLQDVPVRDLKPAIVKVYDYYETDEFAIAEYNAPCSKDLGNA
binds: all assays above

From patent US20030113743A1
